Reference: PubChem BioAssay AID1745846 (National Center for Advancing Translational Sciences (NCATS), 2022)
About 30 (2%) of roughly 1,400 compounds were called active. About 15% were inconclusive and are not listed. The call rests on the fitted dose curve; in most records, active means well fitted inhibition curve with a large enough effect; inconclusive means small, poorly fitted or top-dose-only effect; inactive means flat fitted curve, though single readings scatter. The list shows a part of the results.

Experiment: Firefly Luciferase Counterscreen for Inhibitors of ATXN expression
Conditions: luminescence; series mostly up to 57.5 µM; activity change, negative = inhibition: at the top concentration
Text: University of Utah School of Medicine, Salt Lake City, Utah
Spinocerebellar ataxia type 2 (SCA2) is a multisystem neurodegenerative disease caused by a dominantly acting mutation leading to expansion of a polyQ domain in the ataxin-2 protein (ATXN2). SCA2 patients develop progressive ataxia and later lose function in other neuronal systems. Prominent parkinsonian signs develop in some patients. Like many neurodegenerative disorders, no symptomatic or disease-modifying treatments are known.
The primary objective of the proposed research is to identify compounds inhibiting ATXN2 expression and to test them for efficacy in SCA2 mouse models. We have developed a cell-based assay paired with an in vivo mouse model using identical luciferase expression constructs. This approach takes advantage of an ATXN2-luciferase transgene, with the luciferase gene flanked by the upstream and downstream portions of the ATXN2 gene. Here we describe a 5-7 dose quantitative high thoroughput screen (qHTS) for compounds lowering ATXN2 expression. We screened the NIH Molecular Libraries Small Molecule Repository (MLSMR) and NCGC's mechanistically annotated (MIPE) and drug repurposing (NPC) collections of compounds for lowering expression of an ATXN2-luciferase reporter in HEK-293 cells. The assay is a multiplexed cell viability assay to ensure target reduction in the absence of cytotoxicity. Secondary qHTS assays included a CMV-luciferase reporter expressed in HEK-293 cells as well as a biochemical assay using recombinant luciferase to detect inhibitors of the reporter enzyme. Compounds that inhibit ATXN2 expression but is not cytotoxic were selected for confirmatory and secondary screens.
PROTOCOL TABLE (as described by Inglese J, Shamu CE and Guy RK. 2007)
SEQUENCE No. (e.g., 1, 2, 3, etc.); […] (e.g., Cells, Incubation, Reagent, etc.); VALUE; DESCRIPTION.
2; Compounds; 23 nL; Kalypsis pintool (Wako USA) equipped with a 1536-well pin head.
3; Enzyme; 1 uL; recombinant firefly luciferase (prepared in 50 mM Tris HCl pH7.5, 10 mM MgCl2, 0.05% BSA, 0.01% Tween20) at final concentration of 10 nM. Wells containing buffer only were used as control (set as 100% inhibition when normalizing data).
4; Incubation; 10 min; room temperature.
5; Detection; Luminescence; Viewlux plate reader (PerkinElmer).
NOTES (numbers refer to Sequence numbers above)
1. Luciferase substrate is added to 1536 well, Greiner white assay plate. Evaporation was prevented by covering assay plates with metal lids containing holes to allow gas diffusion.
2. Compounds were added in a dose response manner with the final concentrations of 57, 11.4, 2.28, 0.46, 0.091, 0.018, 0.0037 uM. Vehicle-only plates, with DMSO being pin-transferred to columns 5-48, were inserted uniformly at the beginning and the end of each library to monitor and record any shifts in assay performance.
3. Recombinant firefly luciferase (10 nM final concentration) is added to the assay plate.
5. End-point luminescence is then measured on the Viewlux (PerkinElmer) imager equipped with a clear emission filter using a 2 sec exposure.
Inglese J, Shamu CE and Guy RK, Reporting data from high throughput screening of small molecule libraries, Nature Chemical Biology, 2007, 3(8): 438-441. doi.org/10.1038/nchembio0807-438.
On the % scale 0 is the no-effect control and ±100 the full control effect; potency means the concentration at half of the fitted maximal effect.

| Compound | activity change, negative = inhibition | Potency |
| --- | --- | --- |
| Cc1c(C(=O)N2c3ccccc3Sc3ccccc32)cccc1[N+](=O)[O-] | inactive: -0.615% |  |
| Cc1ccc(NC(=O)CNC(=O)c2cccc(C)c2)nc1 | inactive: -5.12% |  |
| CCc1nc2ccc(C(=O)N(C)Cc3ccccc3)cn2c1N(C)Cc1ccc(OC)cc1 | inactive: -0.261% |  |
| CC(C)(O)C#Cc1ccc([C@@H]2C[C@H]3CN(c4ccccc4)C(=O)[C@]34CCCN24)s1 | inactive: -1.03% |  |
| CCn1cc(C(=O)NCc2ccccc2)c(=O)c2cc(F)c(N3CCN(C(=O)c4ccco4)CC3)cc21 | inactive: -0.619% |  |
| Cc1ccc(CN2CCC(c3cc(-c4ccc(Cl)cc4)n[nH]3)CC2)cc1 | inactive: -1.78% |  |
| CCn1c2ccccc2c2cc(/C=N/NC(=O)c3ccncc3)ccc21 | inactive: -5.05% |  |
| Cc1ccccc1C(=O)N/N=C/c1ccc([N+](=O)[O-])s1 |  | active: 3550 nM |
| NC(=O)Cn1c(=O)n(CCc2ccccc2)c(=O)c2c3c(sc21)CCCC3 | inactive: -1.87% |  |
| COc1cc(/C=C2\COC/C(=C\c3cc(OC)c(OC)c(OC)c3)C2=O)cc(OC)c1OC | inactive: -2% |  |
| COc1ccc(C(NC(C)=O)c2cc(Cl)c3cccnc3c2O)cc1 (stereo not drawn) | inactive: -14.4% |  |
| CCCCN(C)c1nc(-c2ccco2)c2c(c1C#N)CC(C)(C)OC2 | inactive: -12.5% |  |
| CC(C)(C)OC(=O)NNc1c2ccccc2nc2ccccc12 | inactive: -13.9% |  |
| Cc1ccc(-c2csc(N3CCN(c4cc5c(cc4Cl)nc(-c4ccncc4)n5CCOCCO)CC3)n2)cc1 | inactive: -0.701% |  |
| O=C(Nc1cccc(Br)c1)c1cccc(OC(=S)N2CCOCC2)c1 | inactive: -13.5% |  |
| CCCC(=O)N1CCCC(c2cc(C(=O)Nc3ccccc3)no2)C1 (stereo not drawn) |  | active: 1410 nM |
| O=[N+]([O-])c1ccc(O)c(/C=N/Nc2ncnc3c2cnn3-c2ccccc2)c1 | inactive: -18% |  |
| CC(=O)NC(c1cccs1)c1cc(Br)c2cccnc2c1O (stereo not drawn) | inactive: -15.7% |  |
| COc1ccc(-c2csc(NC(=O)c3ccc(OCC(=O)N4CCOCC4)c(OC)c3)n2)cc1OC | inactive: -14% |  |
| COc1ccccc1NC(=S)NC(=O)c1ccc(Cn2cc(Br)cn2)cc1 | inactive: 0.576% |  |
| Cc1ccc(S(=O)(=O)N(Cc2ccccc2)c2ccccc2C(=O)NCc2ccco2)cc1 | inactive: -1.41% |  |

| Compound | activity change, negative = inhibition | Potency |
| --- | --- | --- |
| Cc1cc(OCCCCCn2ccnc2)cc(C)c1Cl | inactive: -6.15% |  |
| COc1ccc(Cl)cc1C(=O)Nc1ccccc1N1CCN(C(=O)C(C)C)CC1 | inactive: -2.44% |  |
| O=C(Nc1nnc(C2CC2)o1)c1ccc(S(=O)(=O)N2CCCc3ccccc32)cc1 | inactive: -19.2% |  |
| COc1ccccc1/C=C/C(=O)OCC(=O)Nc1ccc(Cl)cn1 | inactive: -12.4% |  |
| COc1ccccc1N(CC(=O)NCCSCc1ccc(C)cc1)S(=O)(=O)c1ccccc1 | inactive: 1.88% |  |
| COc1ccc(-c2oc3c(OC)c(OC)c(OC)c(O)c3c(=O)c2OC)cc1OC | inactive: -3.94% |  |
| Cc1cc2c(N=O)c(NO)ccc2[nH]1 | inactive: -17.6% |  |
| O=c1c2ccc(Cl)cc2nc(-c2ccc([N+](=O)[O-])cc2)n1O | inactive: -18.4% |  |
| CCC(C)N1C(=O)S/C(=C/c2ccc(Sc3nc4ccccc4[nH]3)o2)C1=O (stereo not drawn) | inactive: -1.05% |  |
| O=c1nccc(N/N=C/c2ccccc2O)[nH]1 | inactive: -18.7% |  |
| CCOc1ccccc1N1CCN(c2ncnc3scc(-c4ccc(OC)cc4)c23)CC1 | inactive: -1.89% |  |
| CN1CCN(CC#CCn2c3ccccc3c3ccccc32)CC1 | inactive: -3.12% |  |
| Cc1ccc(-c2c(C#N)c(N)n3c(nc4ccccc43)c2C#N)cc1 | inactive: -11.2% |  |
| O=C(N/N=C/c1cc(Br)ccc1O)C(c1ccncc1)N1CCOCC1 (stereo not drawn) | inactive: -3.73% |  |
| COc1ccc(-c2c[n+]3c(n2-c2ccc(C)cc2)CCCCC3)cc1 | inactive: -0.275% |  |
| COc1ccc(O)c(/C=N/NC(=O)c2ccc(CSc3nc(C)cc(C)n3)cc2)c1 | inactive: -1.96% |  |
| C[C@@H]1ON(C)[C@H]2C[C@H]3c4[nH]c5ccc(-c6ccc7c(c6)OCO7)cc5c4CCN3C(=O)[C@@H]12 | inactive: -19.1% |  |
| COc1ccccc1N(C)S(=O)(=O)c1ccc(C(=O)Nc2ccc(N3CCOCC3)cc2)cc1 | inactive: -0.914% |  |
| CC(C)C(=O)NC(c1cccc([N+](=O)[O-])c1)c1ccc2cccnc2c1O (stereo not drawn) | inactive: 0.322% |  |
| COc1cccc(C(=O)NC2CC3CCCC(C2)N3CC(=O)Nc2ccccc2C(F)(F)F)c1 (stereo not drawn) | inactive: -3.42% |  |
| N#Cc1cc2c(=O)n3ccccc3nc2n(-c2ccccc2Cl)c1=O | inactive: -0.166% |  |

Single entries from above.
Under activity change, negative = inhibition, CN1CCN(CC#CCn2c3ccccc3c3ccccc32)CC1 is entered as inactive: -3.12%
Under activity change, negative = inhibition, CCn1c2ccccc2c2cc(/C=N/NC(=O)c3ccncc3)ccc21 is entered as inactive: -5.05%
Under activity change, negative = inhibition, CCn1cc(C(=O)NCc2ccccc2)c(=O)c2cc(F)c(N3CCN(C(=O)c4ccco4)CC3)cc21 is entered as inactive: -0.619%
Under activity change, negative = inhibition, COc1ccc(O)c(/C=N/NC(=O)c2ccc(CSc3nc(C)cc(C)n3)cc2)c1 is entered as inactive: -1.96%

More compounds follow.

| Compound | activity change, negative = inhibition | Potency |
| --- | --- | --- |
| COc1ccc2c(c1)c[n+](C)c1c3cc(OC)c(OC)cc3ccc21 | inactive: -19.9% |  |
| O=C(N/N=C/c1cc(Br)cc(Cl)c1O)c1ccc2c(c1)OCO2 | inactive: -18.1% |  |
| Cc1cc(C)c(CSc2ncc(-c3ccc([N+](=O)[O-])cc3)[nH]2)c(C)c1 | inactive: -2.77% |  |
| COc1cc(/C=C/c2ccc3cccc(O)c3n2)cc(OC)c1OC | inactive: -9.37% |  |
| O=C(Nc1nonc1-c1ccc(Cl)cc1)c1ccccc1 | inactive: 1.38% |  |
| CCOc1ccc(-c2c[n+]3c(n2-c2ccccc2)CCCCC3)cc1 | inactive: -1.14% |  |
| Cc1ccc(-n2cccn2)c(CN2CCCC(C(=O)c3ccc4c(c3)OCO4)C2)c1 (stereo not drawn) | inactive: 1.04% |  |
| CC(C)(C)c1ccc(OCCCC(=O)NNC(=O)c2ccccc2O)cc1 | inactive: -10.8% |  |
| O=S(=O)([N-]c1nc2ccccc2nc1-[n+]1ccc(Cc2ccccc2)cc1)c1ccc(Br)s1 | inactive: -13.6% |  |
| CS(=O)(=O)c1ccc(Nc2nc(C(N)Cc3ccc(Cl)cc3)cs2)cc1 (stereo not drawn) | inactive: 0.635% |  |
| O=S(=O)(c1ccc(Cl)cc1)N1CCN(Cc2ccc(O)c3ncccc23)CC1 | inactive: -0.192% |  |
| COc1c(C)cccc1C(=O)Nc1ccc(N2CCN(C(=O)c3ccccc3C)CC2)cc1 | inactive: -4.9% |  |
| Cc1ccc(OCC(O)Cn2c(=N)n(CCN3CCCCC3)c3ccccc32)cc1 (stereo not drawn) | inactive: 4.64% |  |
| CN(C)CCOc1ccc(-c2c(-c3ccccc3)sc3ccccc23)cc1 | inactive: -0.446% |  |
| O=C(Nc1nc2cc(Cl)ccc2s1)C1CCCN(S(=O)(=O)c2cccc3cccnc23)C1 (stereo not drawn) | inactive: -4.41% |  |
| COc1ccc2nc(C)cc(NCc3cccc(C(F)(F)F)c3)c2c1 | inactive: 7.1% |  |
| OC[C@@H]1[C@@H](c2ccc(F)cc2)C(c2cccc(Cl)c2)=NN1c1ccccc1 | inactive: 0.584% |  |
| O=C(Nc1cccc(S(=O)(=O)C(F)F)c1)c1ccc(Cl)c(S(=O)(=O)N2CCOCC2)c1 | inactive: -0.947% |  |
| Nc1ncn([C@@H]2O[C@H](CO)[C@@H](O)[C@H]2O)c(=O)n1 | inactive: 2.75% |  |
| CCN1CCN(CCNC(=O)c2ccc(/C=C3/Sc4ccccc4N(Cc4cccc(C)c4)C3=O)cc2)CC1 | inactive: -6.25% |  |
| OCC1(CCOc2ccccc2)CCN(CC2=Cc3cc(Cl)ccc3OC2)CC1 | inactive: -1.6% |  |
